Test results published in publication PMC8704797.

Target: TaPUB2 fused to the GAL4 DNA-binding domain (BD) in pGBKT7 (Triticum aestivum (wheat))
Assay: two-hybrid; Matchmaker GAL4 system, AH109 yeast; co-transformants grown on DDO (SD/-Leu/-Trp), spotted on QDO/X (SD/-Leu/-Trp/-His/-Ade/X-a-gal)

binding: binds
Substance: TaPUB3 fused to the GAL4 activation domain (AD) in pGADT7 (from UniProt A0A3B6CDH9)

Results are given in words; binding and its absence hold for the method and conditions named. A result given as binding can be weak or reduced; the word gives no strength.
